Data as given in PubChem BioAssay AID652272 (Drosophila RNAi Screening Center, 2013)
In all, the deposit lists about 21,000 reagents; this is an unselected part of those that have a named target and a result. In the full data, 503 (2.4%) were called active. 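Raw plate light values, not normalised; calls rest on replicate z-scores that were not deposited; hits include reporter decreases as well as increases.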 Entries without a mark were called inactive. Reagents against one gene are numbered here. A plus sign joins genes that one reagent is predicted to hit. The record does not give: the amount of reagent, the time to read-out.

- Test: 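Finding fly genes that regulate Hedgehog signal transduction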 (primary screen)
- Cells: Drosophila clone 8 (Cl8) cells
- Knock-down reagent: long dsRNA against Drosophila genes
- Measured: 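Firefly light from a Hedgehog-responsive ptc promoter reporter and Renilla reference light, both read on a plate reader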
- Scale: firefly Hh reporter signal: higher = more ptc reporter light; Renilla reference signal: higher = more Renilla control light
- Call rule: 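Hit when the z-score averaged over two replicates is under -2 or over +3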
- Calls: active = hit: reporter lowered or raised; inactive = not a hit

no.	gene	dsRNA no.	firefly Hh reporter signal, replicate 1	firefly Hh reporter signal, replicate 2	Renilla reference signal, replicate 1	Renilla reference signal, replicate 2
1	Col4a1 (Collagen type IV alpha 1)	1	79526	52193	4364	2304
2	Root (Rootletin)	1	4.98e5	1.14e5	25346	3616
3	CG30058 + CG34235 + CG34312	1	1.59e5	2.34e5	4138	10082
4	CG32683	1	1.14e5	1.53e5	3516	6648
5	CG32683	2	1.05e5	2.06e5	3443	7997
6	CG32683	3	1.05e5	3.39e5	3732	10821
7	CG18568	1	61216	70870	2966	3030
8	GlnRS (Glutaminyl-tRNA synthetase)	1	56605	82184	1018	2490
9	PIG-G (Phosphatidylinositol glycan anchor biosynthesis class G)	1	1.64e5	1.14e5	5341	2327
10	CG15822	1	74170	43306	1849	3772
11	CG15822	2	64826	37344	1883	3140
12	Stip1 (Stress induced phosphoprotein 1)	1	1.12e5	78037	3251	2562
13	ph-d (polyhomeotic distal)	1	42347 (active)	57553	3178	2996
14	Pura (Puratrophin-1-like)	1	85603	2.27e5	2373	9926
15	Pura (Puratrophin-1-like)	2	68186	53523	6505	3787
16	Pura (Puratrophin-1-like)	3	53616	37408	6256	3264
17	Pura (Puratrophin-1-like)	4	56045	43233	6455	4017
18	Pura (Puratrophin-1-like)	5	61466	84279	7160	6386
19	l(2)k14505 (lethal (2) k14505)	1	1.05e5	61036	4548	2752
20	CG5262	1	96595	73946	4041	3516
21	GramD1B (GRAM domain containing 1B)	1	90562	70218	2508	8330
22	GramD1B (GRAM domain containing 1B)	2	1.05e5	42516	4273	2048
23	P58IPK	1	87944	87611	3306	2539
24	Ucp4C (Uncoupling protein 4C)	1	1.26e5	74504	3275	7361
25	btv (beethoven)	1	95990	1.60e5	2613	8528
26	btv (beethoven)	2	1.15e5	64805	2598	6261
27	CG7675	1	1.37e5	1.33e5	4919	5258
28	Cpr49Ag (Cuticular protein 49Ag)	1	1.23e5	1.25e5	3041	7960
29	CR18228 (pseudo)	1	78374	1.08e5	2619	3051
30	CG15200	1	78714	1.63e5	2208	6188
31	Alk (Anaplastic lymphoma kinase)	1	1.42e5	67156	3651	4962
32	inaF-C	1	4.89e5	1.75e5	25204	3810
33	CG15115	1	6.76e5	1.48e5	6368	6368
34	Synd (Syndapin)	1	6.20e5	1.21e5	29435	4152
35	CG4661	1	51748	2.71e5	1349	10515
36	CG7025	1	1.48e5	63692	3893	4886
37	CG12164	1	2.10e5	1.13e5	7360	4616
38	Mp (Multiplexin)	1	1.63e5	1.50e5	6857	6161
39	Mp (Multiplexin)	2	64900	72728	6087	5101
40	Mp (Multiplexin)	3	43350	47545	4710	3668
41	hook	1	50370	66352	2528	3121
42	CG32189	1	2.30e5		5472	
43	CG12231	1	94258	1.75e5	3568	7659
44	shf (shifted)	1	69591	2.14e5	2509	7520
45	CG6420	1	79200	1.18e5	2116	3888
46	Su(var)2-HP2	1	1.03e5	53537	5099	2541
47	P32	1	73062	83591	3766	3457
48	CG4577	1	1.23e5	1.06e5	2832	2723
49	CG31872	1	1.18e5	41190	3474	3898
50	CG31872	2	1.57e5	61207	3976	4523
51	Sar1 (Secretion-associated Ras-related 1)	1	1.61e5	98116	7450	4152
52	CG6293	1	1.42e5	87256	5426	3616
53	CG5597	1	1.34e5	94580	4296	3957
54	mRpS11 (mitochondrial ribosomal protein S11)	1	1.04e5	94520	1965	2523
55	Hel25E (Helicase at 25E)	1	22916 (active)	21376	1868	2376
56	Psc (Posterior sex combs)	1	99316	55824	2323	4442
57	mld (molting defective)	1	48395	1.47e5	12328	3912
58	mld (molting defective)	2	87814	99008	3852	4592
